Assay results reported in the supplement of paper PMC6411743.
± gives the standard deviation of the averaged measurements. The list shows a part of the results, in another mix than the full data. Most entries show no effect beyond the scatter of the controls.

By UniProt entry, the sequences of proteins in these tests, tags left out. Where a name states a change or a piece, a line headed by the entry shows the natural chain unless it says otherwise.
UniProt O00571: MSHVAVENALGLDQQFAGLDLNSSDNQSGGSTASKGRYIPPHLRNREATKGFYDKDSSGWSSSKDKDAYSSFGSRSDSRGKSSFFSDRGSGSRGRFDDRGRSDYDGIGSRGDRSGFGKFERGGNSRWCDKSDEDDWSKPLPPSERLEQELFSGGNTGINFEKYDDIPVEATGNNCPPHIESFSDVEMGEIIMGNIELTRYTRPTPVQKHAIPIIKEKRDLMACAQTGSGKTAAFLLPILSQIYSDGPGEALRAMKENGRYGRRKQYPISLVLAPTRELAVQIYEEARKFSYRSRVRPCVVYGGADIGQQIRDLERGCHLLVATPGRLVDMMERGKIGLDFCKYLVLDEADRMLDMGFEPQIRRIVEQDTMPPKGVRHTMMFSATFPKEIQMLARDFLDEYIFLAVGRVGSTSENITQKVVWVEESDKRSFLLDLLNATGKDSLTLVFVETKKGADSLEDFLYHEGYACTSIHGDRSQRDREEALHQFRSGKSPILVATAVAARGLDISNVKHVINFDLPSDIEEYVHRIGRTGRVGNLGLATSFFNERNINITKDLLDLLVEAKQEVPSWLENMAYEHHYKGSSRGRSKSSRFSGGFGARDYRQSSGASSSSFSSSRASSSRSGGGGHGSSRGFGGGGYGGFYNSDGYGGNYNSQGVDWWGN
UniProt Q15155: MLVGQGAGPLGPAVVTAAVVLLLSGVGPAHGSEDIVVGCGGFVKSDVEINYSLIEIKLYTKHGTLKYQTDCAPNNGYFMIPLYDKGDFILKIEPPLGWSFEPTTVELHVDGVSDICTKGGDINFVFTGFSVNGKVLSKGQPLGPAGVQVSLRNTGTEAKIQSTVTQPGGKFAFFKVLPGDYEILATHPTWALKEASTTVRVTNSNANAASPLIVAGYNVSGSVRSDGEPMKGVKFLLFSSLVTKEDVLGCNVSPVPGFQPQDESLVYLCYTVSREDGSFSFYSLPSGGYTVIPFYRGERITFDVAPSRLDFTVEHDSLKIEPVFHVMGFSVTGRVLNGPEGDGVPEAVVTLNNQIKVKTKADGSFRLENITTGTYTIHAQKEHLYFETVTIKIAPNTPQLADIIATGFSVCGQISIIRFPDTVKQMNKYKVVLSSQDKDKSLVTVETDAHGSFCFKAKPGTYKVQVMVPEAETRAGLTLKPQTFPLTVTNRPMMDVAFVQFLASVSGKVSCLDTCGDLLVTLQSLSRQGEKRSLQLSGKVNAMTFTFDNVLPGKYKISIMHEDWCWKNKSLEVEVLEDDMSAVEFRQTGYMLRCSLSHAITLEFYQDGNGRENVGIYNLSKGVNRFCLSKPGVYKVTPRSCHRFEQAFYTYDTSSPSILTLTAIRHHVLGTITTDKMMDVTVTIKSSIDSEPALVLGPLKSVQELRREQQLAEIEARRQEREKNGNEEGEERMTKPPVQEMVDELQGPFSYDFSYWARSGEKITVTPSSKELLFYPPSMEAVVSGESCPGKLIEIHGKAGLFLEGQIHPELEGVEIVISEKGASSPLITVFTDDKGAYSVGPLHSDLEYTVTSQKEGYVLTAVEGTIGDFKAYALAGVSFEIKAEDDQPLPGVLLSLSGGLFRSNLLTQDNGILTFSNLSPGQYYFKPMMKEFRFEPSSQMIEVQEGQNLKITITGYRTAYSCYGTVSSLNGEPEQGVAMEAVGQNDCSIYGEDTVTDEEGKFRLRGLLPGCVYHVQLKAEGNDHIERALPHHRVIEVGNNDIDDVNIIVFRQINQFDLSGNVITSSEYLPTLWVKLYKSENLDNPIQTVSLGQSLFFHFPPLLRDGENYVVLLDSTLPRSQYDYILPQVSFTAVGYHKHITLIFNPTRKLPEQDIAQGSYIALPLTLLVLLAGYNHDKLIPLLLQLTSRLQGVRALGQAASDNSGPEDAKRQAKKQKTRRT
UniProt O14981: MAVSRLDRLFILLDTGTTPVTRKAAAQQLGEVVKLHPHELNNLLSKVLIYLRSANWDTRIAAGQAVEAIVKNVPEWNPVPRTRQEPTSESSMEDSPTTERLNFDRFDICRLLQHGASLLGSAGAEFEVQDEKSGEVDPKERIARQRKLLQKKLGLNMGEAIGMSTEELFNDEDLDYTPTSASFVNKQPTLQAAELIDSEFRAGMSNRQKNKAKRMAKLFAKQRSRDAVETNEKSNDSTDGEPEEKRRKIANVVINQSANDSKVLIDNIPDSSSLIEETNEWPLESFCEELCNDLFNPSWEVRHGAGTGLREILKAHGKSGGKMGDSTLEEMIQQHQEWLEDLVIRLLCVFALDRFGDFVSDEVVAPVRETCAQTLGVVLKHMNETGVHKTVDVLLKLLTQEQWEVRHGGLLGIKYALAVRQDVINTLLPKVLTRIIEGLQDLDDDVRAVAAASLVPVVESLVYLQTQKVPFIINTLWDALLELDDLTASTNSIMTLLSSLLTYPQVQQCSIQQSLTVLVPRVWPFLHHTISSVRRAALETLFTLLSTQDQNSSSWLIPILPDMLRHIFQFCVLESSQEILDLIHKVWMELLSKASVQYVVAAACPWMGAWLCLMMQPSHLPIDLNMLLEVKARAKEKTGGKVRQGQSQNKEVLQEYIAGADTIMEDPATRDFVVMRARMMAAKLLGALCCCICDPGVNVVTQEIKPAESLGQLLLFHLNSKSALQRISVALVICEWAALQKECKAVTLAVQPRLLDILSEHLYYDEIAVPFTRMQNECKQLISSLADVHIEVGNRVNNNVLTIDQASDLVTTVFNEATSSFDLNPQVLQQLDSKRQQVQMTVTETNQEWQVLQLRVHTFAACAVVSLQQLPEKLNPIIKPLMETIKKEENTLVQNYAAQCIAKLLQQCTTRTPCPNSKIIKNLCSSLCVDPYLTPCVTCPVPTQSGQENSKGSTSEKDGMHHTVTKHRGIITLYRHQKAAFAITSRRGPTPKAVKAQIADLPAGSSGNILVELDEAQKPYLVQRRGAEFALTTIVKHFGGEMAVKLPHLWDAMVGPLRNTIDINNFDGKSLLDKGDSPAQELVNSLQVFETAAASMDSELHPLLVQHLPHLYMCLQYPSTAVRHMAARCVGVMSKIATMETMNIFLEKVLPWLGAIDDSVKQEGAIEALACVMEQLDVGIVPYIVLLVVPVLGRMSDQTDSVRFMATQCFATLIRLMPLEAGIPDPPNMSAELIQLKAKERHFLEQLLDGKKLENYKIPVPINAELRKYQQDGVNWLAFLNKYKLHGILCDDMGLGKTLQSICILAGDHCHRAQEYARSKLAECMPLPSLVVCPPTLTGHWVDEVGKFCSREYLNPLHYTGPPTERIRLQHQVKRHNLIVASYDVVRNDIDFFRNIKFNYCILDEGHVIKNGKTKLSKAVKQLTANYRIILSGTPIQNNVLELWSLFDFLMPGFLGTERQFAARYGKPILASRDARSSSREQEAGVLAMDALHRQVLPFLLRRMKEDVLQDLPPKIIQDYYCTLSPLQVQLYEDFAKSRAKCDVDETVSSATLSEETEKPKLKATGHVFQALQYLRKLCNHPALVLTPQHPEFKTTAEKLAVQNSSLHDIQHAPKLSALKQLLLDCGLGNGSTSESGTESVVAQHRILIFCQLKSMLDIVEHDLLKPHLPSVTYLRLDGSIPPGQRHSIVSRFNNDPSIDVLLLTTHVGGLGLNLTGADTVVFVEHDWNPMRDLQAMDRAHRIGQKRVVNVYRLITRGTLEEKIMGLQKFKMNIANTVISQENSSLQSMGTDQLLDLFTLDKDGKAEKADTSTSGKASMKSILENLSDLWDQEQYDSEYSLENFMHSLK
UniProt O15213: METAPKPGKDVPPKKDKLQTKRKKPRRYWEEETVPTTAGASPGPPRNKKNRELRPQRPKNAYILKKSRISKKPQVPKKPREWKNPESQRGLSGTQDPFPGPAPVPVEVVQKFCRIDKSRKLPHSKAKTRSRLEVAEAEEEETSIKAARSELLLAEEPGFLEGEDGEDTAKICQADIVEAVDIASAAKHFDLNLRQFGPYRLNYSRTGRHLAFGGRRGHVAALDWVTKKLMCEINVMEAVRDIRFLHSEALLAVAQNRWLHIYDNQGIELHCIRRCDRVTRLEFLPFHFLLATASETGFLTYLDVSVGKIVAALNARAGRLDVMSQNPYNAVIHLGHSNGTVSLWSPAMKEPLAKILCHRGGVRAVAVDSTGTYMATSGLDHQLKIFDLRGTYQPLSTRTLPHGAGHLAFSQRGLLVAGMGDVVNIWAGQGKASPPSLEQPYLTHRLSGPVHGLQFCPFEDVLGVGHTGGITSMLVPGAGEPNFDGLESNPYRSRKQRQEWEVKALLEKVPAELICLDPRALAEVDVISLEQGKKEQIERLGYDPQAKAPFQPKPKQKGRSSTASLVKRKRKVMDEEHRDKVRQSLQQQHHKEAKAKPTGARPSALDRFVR
UniProt Q14160: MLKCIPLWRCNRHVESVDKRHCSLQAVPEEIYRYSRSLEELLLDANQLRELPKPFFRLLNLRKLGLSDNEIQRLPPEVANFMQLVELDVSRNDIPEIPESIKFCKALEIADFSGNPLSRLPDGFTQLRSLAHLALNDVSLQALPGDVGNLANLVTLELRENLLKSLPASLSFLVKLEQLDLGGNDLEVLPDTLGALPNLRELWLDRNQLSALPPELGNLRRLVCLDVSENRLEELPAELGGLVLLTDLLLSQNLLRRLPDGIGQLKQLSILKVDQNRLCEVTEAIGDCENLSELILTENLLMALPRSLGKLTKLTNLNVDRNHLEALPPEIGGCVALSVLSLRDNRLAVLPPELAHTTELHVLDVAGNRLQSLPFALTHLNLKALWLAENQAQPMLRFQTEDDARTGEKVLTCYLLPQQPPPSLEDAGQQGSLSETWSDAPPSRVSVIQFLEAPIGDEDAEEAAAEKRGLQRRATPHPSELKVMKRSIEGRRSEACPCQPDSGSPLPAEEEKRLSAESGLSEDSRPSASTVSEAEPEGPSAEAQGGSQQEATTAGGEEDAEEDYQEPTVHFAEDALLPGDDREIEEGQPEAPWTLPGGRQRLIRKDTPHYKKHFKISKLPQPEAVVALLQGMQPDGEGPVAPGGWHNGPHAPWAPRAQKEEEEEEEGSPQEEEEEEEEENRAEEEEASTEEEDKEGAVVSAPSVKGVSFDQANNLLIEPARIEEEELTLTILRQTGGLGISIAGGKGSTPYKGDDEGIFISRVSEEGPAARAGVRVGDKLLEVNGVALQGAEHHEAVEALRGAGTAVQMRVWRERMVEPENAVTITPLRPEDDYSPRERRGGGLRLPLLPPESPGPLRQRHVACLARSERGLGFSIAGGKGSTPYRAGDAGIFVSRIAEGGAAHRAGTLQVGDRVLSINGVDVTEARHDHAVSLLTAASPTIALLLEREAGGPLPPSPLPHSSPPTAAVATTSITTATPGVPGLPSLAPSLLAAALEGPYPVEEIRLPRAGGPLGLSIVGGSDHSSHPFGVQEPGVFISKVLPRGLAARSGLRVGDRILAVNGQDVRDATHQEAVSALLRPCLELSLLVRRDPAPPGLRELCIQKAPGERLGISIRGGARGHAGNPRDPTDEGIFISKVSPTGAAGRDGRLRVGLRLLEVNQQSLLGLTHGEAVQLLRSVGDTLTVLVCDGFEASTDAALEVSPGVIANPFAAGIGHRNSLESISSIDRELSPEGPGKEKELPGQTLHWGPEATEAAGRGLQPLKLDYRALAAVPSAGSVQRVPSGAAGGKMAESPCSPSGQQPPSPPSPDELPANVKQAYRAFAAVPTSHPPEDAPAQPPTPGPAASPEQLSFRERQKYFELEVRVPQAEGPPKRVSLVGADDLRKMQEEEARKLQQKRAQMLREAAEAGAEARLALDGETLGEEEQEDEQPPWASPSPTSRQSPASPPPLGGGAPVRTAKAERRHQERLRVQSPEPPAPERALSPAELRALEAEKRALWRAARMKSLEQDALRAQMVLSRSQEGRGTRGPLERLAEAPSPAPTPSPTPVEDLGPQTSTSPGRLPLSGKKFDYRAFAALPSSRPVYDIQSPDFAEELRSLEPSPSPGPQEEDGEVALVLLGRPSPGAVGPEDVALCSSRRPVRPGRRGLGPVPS
UniProt Q96BW1: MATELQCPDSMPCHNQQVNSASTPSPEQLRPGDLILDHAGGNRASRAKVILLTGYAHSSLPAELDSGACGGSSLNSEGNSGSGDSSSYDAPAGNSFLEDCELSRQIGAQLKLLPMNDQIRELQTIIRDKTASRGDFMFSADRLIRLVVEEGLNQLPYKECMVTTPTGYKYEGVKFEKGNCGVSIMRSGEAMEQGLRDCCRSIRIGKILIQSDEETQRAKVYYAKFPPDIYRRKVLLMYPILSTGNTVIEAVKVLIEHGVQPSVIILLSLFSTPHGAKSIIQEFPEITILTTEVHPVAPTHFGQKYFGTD
UniProt P62070: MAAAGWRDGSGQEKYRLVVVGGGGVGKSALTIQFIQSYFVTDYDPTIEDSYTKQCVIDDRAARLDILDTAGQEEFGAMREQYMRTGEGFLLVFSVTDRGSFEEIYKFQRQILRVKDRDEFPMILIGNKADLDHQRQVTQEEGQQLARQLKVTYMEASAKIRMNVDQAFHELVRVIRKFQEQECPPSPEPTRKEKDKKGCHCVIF

Each target was assayed with Nc1ncnc2c1ncn2[C@@H]1O[C@H](COP(=O)(O)OP(=O)(O)NP(=O)(O)O)[C@@H](O)[C@H]1O [adenylyl imidodiphosphate] (assay: NP40-soluble protein abundance relative to vehicle (solubility fold change) (ratio); higher = more soluble protein in presence of AMP-PNP). Details: concentration: 0.1mM.
In short: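 In three independent experiments, Jurkat crude lysate made by Dounce homogenisation was treated for 10 min at room temperature and then 3 min at 37 °C with eight concentrations ranging from 0.1 to 10 mM. It was then solubilised with 0.8% NP40 plus benzonase for 60 min at 4 °C and ultracentrifuged. The supernatant was TMT-labelled for LC-MS/MS, and each value is the fold change against the detergent-processed vehicle for the same replicate, using vsn-normalised intensities.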

Target	NP40-soluble protein abundance
A0A0D9SF53|A0A0D9SFB3|A0A0D9SG12|O00571 (UniProt O00571)	1.03 ± 0.016
UHRF1BP1L (UniProt A0JNW5)	0.994 ± 0.015
A0A0G2JLB3|A0A0G2JNZ0|A0A0G2JNZ5|P04062 and related entries (UniProt P04062)	0.9677 ± 0.0039
A0A0G2JK44|A0A140T9E9|H0Y6K2 and related entries (UniProt P25440)	0.964 ± 0.015
A0A0A0MTD1|E7EPX0 and related entries (UniProt Q9NUL3)	1.031 ± 0.0043
A0A0U1RQG6|A0A0U1RQM7|A0A0U1RR06|C9JYH8 and related entries (UniProt Q9Y484)	0.9919 ± 0.0079
A0A087X117|A0A0G2JN29|Q15155 (UniProt Q15155)	1.02 ± 0.012
A0A0B4J220 (UniProt E9PRG8)	1.11 ± 0.051
A0A0A0MTH9|O14981 (UniProt O14981)	1.03 ± 0.016
A0A0B4J2F8|A6NFM0 and related entries (UniProt Q9GZM3+Q9H1A7+P52435+F6S314+E2QRJ6+A6NFM0)	1.02 ± 0.02
A0A0A0MRR1|Q5VV50 and related entries (UniProt Q5VV52)	1.025 ± 0.0086
A0A0G2JIW1|P0DMV8 and related entries (UniProt P0DMV9+P0DMV8)	1.02 ± 0.043
A0A087X0K1|Q9Y376 (UniProt Q9Y376)	1.01 ± 0.064
A0AVT1	0.9855 ± 0.008
A0A0A0MR85|Q03013 (UniProt Q03013)	0.968 ± 0.031
A0A0C4DGB9|Q9H2U2 (UniProt Q9H2U2)	1 ± 0.013
A0A087WZV0|O43314 and related entries (UniProt O43314)	1.05 ± 0.054
A0A0J9YXJ0|E9PC62 and related entries (UniProt O95319)	0.9855 ± 0.0071
A0A087WXR7|Q5TBB1 (UniProt Q5TBB1)	1 ± 0.039

Target	NP40-soluble protein abundance
A0A0U1RRC9|P57075 and related entries (UniProt P57075)	0.997 ± 0.018
A0A087X239|Q6PCB5 (UniProt Q6PCB5)	1.02 ± 0.014
A0A140T9L0|O15213 (UniProt O15213)	0.9692 ± 0.0026
A0A0B4J1R7|Q96B45 (UniProt Q96B45)	1.013 ± 0.01
UniProt A1L0T0 and related entries	0.98 ± 0.024
A0A0C4DGA2|O75521 and related entries (UniProt O75521)	0.99 ± 0.032
A0A0D9SFL3|B0QYK0 and related entries (UniProt Q01844)	0.981 ± 0.011
A0A0D9SF28|F5GXV7 and related entries (UniProt Q8NFP9)	1.02 ± 0.018
A0A0A6YYC8|I3L1I5 (UniProt I3L1I5)	1.01 ± 0.017
A0A0A0MTC2|D6RA37 and related entries (UniProt Q13454)	1.01 ± 0.024
A0A0G2JPP5|Q14160-3|A0A0G2JNZ2|Q14160 (UniProt Q14160)	0.982 ± 0.023
A0A0A0MRR5|Q96BW1 and related entries (UniProt Q96BW1)	1.03 ± 0.028
A0A0A0MQR2|Q9BY42 (UniProt Q9BY42)	0.982 ± 0.019
A0A0D9SEY1|E7ESS2 and related entries (UniProt O95819)	1.02 ± 0.024
A0A0D9SFB1|A0A0D9SFE4|A0A0U1RQP1|Q05193 and related entries (UniProt Q05193)	0.991 ± 0.046
A0A0C4DGH2|P62070 and related entries (UniProt P62070)	1 ± 0.031
A0A087X1Z3|Q9UL46 (UniProt Q9UL46)	0.995 ± 0.059
A0A087X0N3|Q96MY1 (UniProt Q96MY1)	0.974 ± 0.013
A0A0A0MQX8|Q9NR56 and related entries (UniProt Q9NR56)	0.966 ± 0.021

Same assay, conditions: concentration: 0.5mM

Target	NP40-soluble protein abundance
A0A0D9SF53|A0A0D9SFB3|A0A0D9SG12|O00571 (UniProt O00571)	1.01 ± 0.075
UHRF1BP1L (UniProt A0JNW5)	1.03 ± 0.041
A0A0G2JLB3|A0A0G2JNZ0|A0A0G2JNZ5|P04062 and related entries (UniProt P04062)	0.984 ± 0.015
A0A0G2JK44|A0A140T9E9|H0Y6K2 and related entries (UniProt P25440)	0.98 ± 0.035
A0A0A0MTD1|E7EPX0 and related entries (UniProt Q9NUL3)	1.04 ± 0.013
A0A0U1RQG6|A0A0U1RQM7|A0A0U1RR06|C9JYH8 and related entries (UniProt Q9Y484)	0.979 ± 0.045
A0A087X117|A0A0G2JN29|Q15155 (UniProt Q15155)	1.008 ± 0.007
A0A0B4J220 (UniProt E9PRG8)	1.149 ± 0.0064
A0A0A0MTH9|O14981 (UniProt O14981)	1 ± 0.021
A0A0B4J2F8|A6NFM0 and related entries (UniProt Q9GZM3+Q9H1A7+P52435+F6S314+E2QRJ6+A6NFM0)	1.09 ± 0.021
A0A0A0MRR1|Q5VV50 and related entries (UniProt Q5VV52)	1.02 ± 0.015
A0A0G2JIW1|P0DMV8 and related entries (UniProt P0DMV9+P0DMV8)	1.04 ± 0.051
A0A087X0K1|Q9Y376 (UniProt Q9Y376)	1.02 ± 0.021
A0AVT1	0.988 ± 0.04
A0A0A0MR85|Q03013 (UniProt Q03013)	0.981 ± 0.046
A0A0C4DGB9|Q9H2U2 (UniProt Q9H2U2)	1.014 ± 0.0053
A0A087WZV0|O43314 and related entries (UniProt O43314)	1.02 ± 0.013
A0A0J9YXJ0|E9PC62 and related entries (UniProt O95319)	1 ± 0.018
A0A087WXR7|Q5TBB1 (UniProt Q5TBB1)	1.03 ± 0.05

Target	NP40-soluble protein abundance
A0A0U1RRC9|P57075 and related entries (UniProt P57075)	0.992 ± 0.019
A0A087X239|Q6PCB5 (UniProt Q6PCB5)	1.008 ± 0.0032
A0A140T9L0|O15213 (UniProt O15213)	1.01 ± 0.05
A0A0B4J1R7|Q96B45 (UniProt Q96B45)	0.999 ± 0.021
UniProt A1L0T0 and related entries	0.992 ± 0.037
A0A0C4DGA2|O75521 and related entries (UniProt O75521)	1.02 ± 0.035
A0A0D9SFL3|B0QYK0 and related entries (UniProt Q01844)	1.01 ± 0.022
A0A0D9SF28|F5GXV7 and related entries (UniProt Q8NFP9)	1 ± 0.019
A0A0A6YYC8|I3L1I5 (UniProt I3L1I5)	1.0188 ± 0.0007
A0A0A0MTC2|D6RA37 and related entries (UniProt Q13454)	1 ± 0.065
A0A0G2JPP5|Q14160-3|A0A0G2JNZ2|Q14160 (UniProt Q14160)	0.982 ± 0.022
A0A0A0MRR5|Q96BW1 and related entries (UniProt Q96BW1)	0.984 ± 0.043
A0A0A0MQR2|Q9BY42 (UniProt Q9BY42)	1.009 ± 0.0094
A0A0D9SEY1|E7ESS2 and related entries (UniProt O95819)	1.02 ± 0.044
A0A0D9SFB1|A0A0D9SFE4|A0A0U1RQP1|Q05193 and related entries (UniProt Q05193)	0.989 ± 0.067
A0A0C4DGH2|P62070 and related entries (UniProt P62070)	1.05 ± 0.069
A0A087X1Z3|Q9UL46 (UniProt Q9UL46)	1.06 ± 0.11
A0A087X0N3|Q96MY1 (UniProt Q96MY1)	0.977 ± 0.027
A0A0A0MQX8|Q9NR56 and related entries (UniProt Q9NR56)	1 ± 0.06
